Results reported in patent US20240408093A1, “HETEROBIFUNCTIONAL COMPOUNDS AND THEIR USE IN TREATING DISEASE” (HALDA THERAPEUTICS OPCO, INC., priority 2022, published 2024).
The match of structure and compound is tentative.

Amino acid sequences for entries named in this document (tags omitted).
UniProt P15170, whole entry: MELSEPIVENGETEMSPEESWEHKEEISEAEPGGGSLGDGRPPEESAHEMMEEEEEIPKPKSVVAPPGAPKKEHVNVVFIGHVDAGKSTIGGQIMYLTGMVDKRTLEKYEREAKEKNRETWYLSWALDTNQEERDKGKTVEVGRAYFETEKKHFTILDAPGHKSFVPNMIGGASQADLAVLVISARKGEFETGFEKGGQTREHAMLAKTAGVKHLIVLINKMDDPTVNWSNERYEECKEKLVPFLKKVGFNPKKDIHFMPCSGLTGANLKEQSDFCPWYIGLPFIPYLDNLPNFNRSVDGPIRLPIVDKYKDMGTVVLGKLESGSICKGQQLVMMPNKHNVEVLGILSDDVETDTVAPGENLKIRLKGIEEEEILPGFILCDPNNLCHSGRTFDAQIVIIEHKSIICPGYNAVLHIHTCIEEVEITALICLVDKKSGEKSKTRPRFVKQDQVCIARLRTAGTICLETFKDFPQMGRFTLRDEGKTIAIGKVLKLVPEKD
UniProt Q96SW2, whole entry: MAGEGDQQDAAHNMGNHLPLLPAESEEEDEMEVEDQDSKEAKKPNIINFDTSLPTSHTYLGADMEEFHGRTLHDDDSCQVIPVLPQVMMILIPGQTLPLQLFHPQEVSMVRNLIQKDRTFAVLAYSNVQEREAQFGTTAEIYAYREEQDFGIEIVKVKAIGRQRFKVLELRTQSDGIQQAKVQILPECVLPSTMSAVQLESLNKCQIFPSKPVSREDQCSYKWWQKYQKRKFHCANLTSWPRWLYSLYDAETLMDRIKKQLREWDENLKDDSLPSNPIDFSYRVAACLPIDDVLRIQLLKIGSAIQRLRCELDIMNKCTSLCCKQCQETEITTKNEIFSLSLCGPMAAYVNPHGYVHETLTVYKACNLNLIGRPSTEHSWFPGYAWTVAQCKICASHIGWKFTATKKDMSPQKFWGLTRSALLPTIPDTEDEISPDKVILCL
UniProt Q06187, whole entry: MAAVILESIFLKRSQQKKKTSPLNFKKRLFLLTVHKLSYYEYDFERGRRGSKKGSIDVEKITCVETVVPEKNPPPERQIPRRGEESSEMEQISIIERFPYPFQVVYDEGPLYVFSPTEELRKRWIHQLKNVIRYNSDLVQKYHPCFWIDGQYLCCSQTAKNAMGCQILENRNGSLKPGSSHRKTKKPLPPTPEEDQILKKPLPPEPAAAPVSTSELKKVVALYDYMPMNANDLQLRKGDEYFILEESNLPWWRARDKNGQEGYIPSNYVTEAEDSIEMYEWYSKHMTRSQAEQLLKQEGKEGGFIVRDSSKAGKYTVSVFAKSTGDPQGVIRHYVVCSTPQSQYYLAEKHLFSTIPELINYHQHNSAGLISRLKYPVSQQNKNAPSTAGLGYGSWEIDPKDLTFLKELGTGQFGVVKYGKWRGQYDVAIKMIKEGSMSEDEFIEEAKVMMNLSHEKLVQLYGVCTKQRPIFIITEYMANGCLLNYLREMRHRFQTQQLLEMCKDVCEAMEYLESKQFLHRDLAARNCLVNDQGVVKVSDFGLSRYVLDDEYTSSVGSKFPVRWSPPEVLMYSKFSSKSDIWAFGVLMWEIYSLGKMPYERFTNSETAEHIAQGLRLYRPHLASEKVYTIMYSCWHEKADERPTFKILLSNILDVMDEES
UniProt Q16531, whole entry partner: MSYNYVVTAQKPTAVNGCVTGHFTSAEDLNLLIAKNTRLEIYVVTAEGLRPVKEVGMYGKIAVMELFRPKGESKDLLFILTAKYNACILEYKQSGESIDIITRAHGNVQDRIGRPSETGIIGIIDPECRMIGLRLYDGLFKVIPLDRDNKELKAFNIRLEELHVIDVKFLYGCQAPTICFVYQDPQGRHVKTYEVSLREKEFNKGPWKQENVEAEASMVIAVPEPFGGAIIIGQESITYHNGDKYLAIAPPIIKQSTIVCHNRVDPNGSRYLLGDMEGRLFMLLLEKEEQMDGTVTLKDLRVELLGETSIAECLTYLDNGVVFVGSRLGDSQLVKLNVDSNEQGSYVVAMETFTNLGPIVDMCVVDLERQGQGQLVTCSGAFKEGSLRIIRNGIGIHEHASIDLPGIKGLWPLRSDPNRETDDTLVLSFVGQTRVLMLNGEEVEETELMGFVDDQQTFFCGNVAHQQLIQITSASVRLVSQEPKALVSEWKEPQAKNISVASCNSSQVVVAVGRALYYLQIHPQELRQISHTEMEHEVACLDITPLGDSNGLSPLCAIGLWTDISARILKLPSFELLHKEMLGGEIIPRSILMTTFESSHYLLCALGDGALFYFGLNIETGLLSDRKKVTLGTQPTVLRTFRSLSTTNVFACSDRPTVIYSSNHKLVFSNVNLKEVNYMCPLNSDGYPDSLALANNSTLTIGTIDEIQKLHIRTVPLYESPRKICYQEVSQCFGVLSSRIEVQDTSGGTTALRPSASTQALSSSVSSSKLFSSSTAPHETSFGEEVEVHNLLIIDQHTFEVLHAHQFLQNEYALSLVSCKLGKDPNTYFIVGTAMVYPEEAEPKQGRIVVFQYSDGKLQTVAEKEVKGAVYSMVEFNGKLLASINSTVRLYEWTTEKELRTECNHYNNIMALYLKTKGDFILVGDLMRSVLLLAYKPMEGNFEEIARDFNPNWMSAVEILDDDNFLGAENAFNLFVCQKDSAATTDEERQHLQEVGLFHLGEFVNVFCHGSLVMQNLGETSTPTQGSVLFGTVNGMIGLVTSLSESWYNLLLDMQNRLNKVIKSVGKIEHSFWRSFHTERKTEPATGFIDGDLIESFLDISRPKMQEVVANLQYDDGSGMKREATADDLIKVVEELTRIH

Experiments:
[1] = molecular target: GSPT1 (Homo sapiens, UniProt P15170+Q96SW2); assay: GSPT1 HiBiT degradation assay; conditions: HEK293 LgBiT GSPT1 HiBiT cells, 6 hours
Text: Promega developed a HEK293 cell line that constitutively expresses LgBiT protein and GSPT1_HiBiT fusion protein. When both proteins are present, the HiBiT portion of the fusion protein combines with LgBiT protein to form a functional luciferase enzyme. Endurazine, a cell permeable small molecule, is converted by cellular esterases into furimazine, which the luciferase enzyme uses as a substrate to generate luminescence. When GSPT1 is degraded, the HiBit is also degraded. This prevents formation of fully functional luciferase, leading to a loss in luminescence. GSPT1 degradation therefore correlates with a decrease in luminescence and can be measured continuously over time. The concentration of compound at which 50% GSPT1 degradation occurs (DC50) may be calculated using this system.
HEK293 LgBiTGSPT1 HiBiT CRISPR Knock-in cells were cultured in DMEM Media supplemented with 10% Heat-inactivated FBS, 1% Penicillin/Streptomycin, 200 μg/mL hygromycin and stored in a humidified incubator set at 37° C. and 5% CO2. […] After 6 hours, the plate was read on a Perkin Elmer MultiMode Plate Reader Envision 2105 to measure luminescence signal. Data were plotted in Prism (Graphpad) and the concentration of compound at which 50% GSPT1 degradation occurs (DC50) was calculated.

[2] = system: HeLa cells (ATCC CCL-2); assay: Cellular growth inhibition assay, HeLa cells (Example 16); conditions: read-out: HeLa (GI50), 72 hours, CellTiter-Glo 2.0
Method: Exemplary compounds were tested for ability to inhibit the proliferation of HEK293 cells (ATCC CRL-1573) and HeLa cells (ATCC CCL-2).
HEK293 and HeLa cells were cultured in DMEM (Gibco 11995), supplemented with 10% Heat-inactivated FBS (Gibco A38400-01) and 1% Penicillin/Streptomycin (Gibco 15140-122) at 37° C. with 5% CO2 in a humidified tissue culture incubator. Cells were seeded at 500 cells/well in 384-well, Poly-D-lysine-treated blackplates (Perkin Elmer 6007710) in 25 μL media lacking selection for 18-24 hours. Plates were spun at 300 g for 30 seconds and stored in the incubator overnight. After 24 hours, a 25 μL aliquot of compound-containing medium was added in each well, at a final top concentration of 10 μM test compound, with 3-fold dilutions, using DMSO alone as a negative control. Plates were then spun at 300×g for 3 minutes again and cultured at 37° C. with 5% CO2. After 72 hours, cell viability was quantified with CellTiter-Glo 2.0 (Promega). After equilibrating cell plates at room temperature for 30 minutes, 25 μL CellTiter-Glo 2.0 reagent was dispensed into each well. Plates were mixed on a shaker for 2 minutes at 500 rpm, followed by a 10-minute incubation at room temperature. Luminescence readings were measured with an EnVision Plate Reader (Perkin Elmer). Data was normalized to DMSO treated cell wells. A four-parameter non-linear regression curve fit was applied to dose-response data in Prism to determine the half maximal growth inhibitory concentration (GI50) of each compound.

[3] = molecular target: full-length BTK (amino acids 1-659) (Homo sapiens, UniProt Q06187); assay: KdELECT binding assay, BTK
Method: Exemplary compounds were tested for ability to bind to full-length BTK (amino acids 1-659; Accession Number NP_000052.1) expressed from mammalian cells. Compounds were tested using the KdELECT assay.
Kinase-tagged T7 phage strains were prepared in an E. coli host derived from the BL21 strain. E. coli were grown to log-phase and infected with T7 phage and incubated with shaking at 32° C. until lysis. The lysates were centrifuged and filtered to remove cell debris. The remaining kinases were produced in HEK-293 cells and subsequently tagged with DNA for qPCR detection. Streptavidin-coated magnetic beads were treated with biotinylated small molecule ligands for 30 minutes at room temperature to generate affinity resins for kinase assays. The liganded beads were blocked with excess biotin and washed with blocking buffer (SeaBlock (Pierce), 1% BSA, 0.05% Tween 20, 1 mM DTT) to remove unbound ligand and to reduce non-specific binding. Binding reactions were assembled by combining kinases, liganded affinity beads, and test compounds in 1× binding buffer (20% SeaBlock, 0.17× PBS, 0.05% Tween 20, 6 mM DTT). Test compounds were prepared as 111× stocks in 100% DMSO. Kd values were determined using an 11-point 3-fold compound dilution series with three DMSO control points. […] The kinase concentration in the eluates was measured by qPCR.

## C=C(CN(C(=O)NCc1ccc2c(c1)CN(C1CCC(=O)NC1=O)C2=O)c1ccc(C)c(Cl)c1)C(=O)N1CCC[C@@H](n2nc(-c3ccc(Oc4ccccc4)cc3)c3c(N)ncnc32)C1 (stereo partly drawn) [Compound I-4]
[1]
  DC50: 500 to 2500 nM
[2]
  GI50: > 10000 nM
[3]
  Kd: 50 to 500 nM
